Test results: US20080014186A1, “Hla-A24 or Hla-A2 Binding Peptides of Parathyroid Hormone-Related Protein” (GREEN PEPTIDE CO., LTD., priority 2004, published 2008)
Not every detail of the peptide structures is certain; ends, links or a residue may be inferred. Ends that are not written are not given here.

Key:
[1] = tested on: IgG in plasma of HLA-A2^+ healthy donors and prostate cancer patients; assay: Peptide-specific IgG in plasma by ELISA (HLA-A2-binding PTHrP peptides); design: species or system human; settings: for IgG reactive to the peptide in plasma (difference of OD): 1:100-diluted plasma
Experimental: Peptide-specific IgG levels in the plasma were measured by ELISA, as previously reported. In brief, peptide (20 μg/well)-immobilized plates were blocked with Block Ace (Yukijirushi, Tokyo, Japan) and washed with 0.05% Tween20-PBS, after which 100 μl/well of plasma sample diluted with 0.05% Tween20-Block Ace was added to the plate. After 2 hours incubation at 37° C., the plates were washed and further incubated for 2 hours with a 1:1000-diluted rabbit anti-human IgG (γ-chain-specific) (DAKO, Glostrup, Denmark). The plates were washed, and then 100 μl of 1:100-diluted goat anti-rabbit IgG-conjugated horseradish peroxidase (EnVision, DAKO) was added to each well, and the plates were then incubated at room temperature for 40 min. After the plates were washed once, 100 μl/well of tetramethyl benzidine substrate solution (KPL, Guildford, UK) was added, and the reaction was stopped by the addition of 1 M phosphoric acid. The values are shown as optical density (OD) units/ml, and responses to the HIV peptide were subtracted. IgG reactive to a corresponding PTHrP peptide was judged to be positive when the difference of the OD in 1:100-diluted plasma exceeded 0.05. The results that IgG reactive to either the PTHrP102-111 or the […] peptide was detected in 8 of 10 healthy donors and in 7 of 10 prostate cancers are shown in Table 2 hereinafter.
In a similar way to Example 3, it was examined whether IgGs reactive to peptides of PTHrP 42-51 and PTHrP 59-67 could be detected in the plasma of 10 healthy donors and 10 cancer patients. The cut-off value at 1:100-diluted plasma was ODO.054.

[2] = tested on: PBMCs of HLA-A2^+ healthy donors and prostate cancer patients; assay: Assay for peptide-specific CTLs in PBMCs (IFN-γ ELISA, peptide-pulsed T2 cells); assay type: cell-based, human; settings: for INF-γ production: T2 cells
[3] = HLA-A2^+ prostate cancer patients

FLHHLIAEI [PTHrP 59-67]
IgG reactive to the peptide in plasma (difference of OD) ([1]; HLA-A2^+ healthy donor #1): — (IgG reactive to a corresponding peptide was judged to be positive when a difference of OD in a 1:100-diluted plasma was more than 0.054.) | IgG reactive to the peptide in plasma (difference of OD) ([1]; HLA-A2^+ healthy donor #2): — (IgG reactive to a corresponding peptide was judged to be positive when a difference of OD in a 1:100-diluted plasma was more than 0.054.) | IgG reactive to the peptide in plasma (difference of OD) ([1]; HLA-A2^+ healthy donor #3): — (IgG reactive to a corresponding peptide was judged to be positive when a difference of OD in a 1:100-diluted plasma was more than 0.054.) | IgG reactive to the peptide in plasma (difference of OD) ([1]; HLA-A2^+ healthy donor #4): — (IgG reactive to a corresponding peptide was judged to be positive when a difference of OD in a 1:100-diluted plasma was more than 0.054.) | IgG reactive to the peptide in plasma (difference of OD) ([1]; HLA-A2^+ healthy donor #5): — (IgG reactive to a corresponding peptide was judged to be positive when a difference of OD in a 1:100-diluted plasma was more than 0.054.) | IgG reactive to the peptide in plasma (difference of OD) ([1]; HLA-A2^+ healthy donor #6): 0.078 OD | IgG reactive to the peptide in plasma (difference of OD) ([1]; HLA-A2^+ healthy donor #7): — (IgG reactive to a corresponding peptide was judged to be positive when a difference of OD in a 1:100-diluted plasma was more than 0.054.) | IgG reactive to the peptide in plasma (difference of OD) ([1]; HLA-A2^+ healthy donor #8): — (IgG reactive to a corresponding peptide was judged to be positive when a difference of OD in a 1:100-diluted plasma was more than 0.054.) | IgG reactive to the peptide in plasma (difference of OD) ([1]; HLA-A2^+ healthy donor #9): 0.112 OD | IgG reactive to the peptide in plasma (difference of OD) ([1]; HLA-A2^+ healthy donor #10): — (IgG reactive to a corresponding peptide was judged to be positive when a difference of OD in a 1:100-diluted plasma was more than 0.054.) | IgG reactive to the peptide detected, number of donors ([1]; HLA-A2^+ healthy donors): 2 of 10 | Total (IgG-positive donors / donors tested) ([1]; HLA-A2^+ healthy donors): 2/10 | IgG reactive to the peptide in plasma (difference of OD) ([1]; HLA-A2^+ prostate cancer patient #1): — (IgG reactive to a corresponding peptide was judged to be positive when a difference of OD in a 1:100-diluted plasma was more than 0.054.) | IgG reactive to the peptide in plasma (difference of OD) ([1]; HLA-A2^+ prostate cancer patient #2): 0.1225 OD | IgG reactive to the peptide in plasma (difference of OD) ([1]; HLA-A2^+ prostate cancer patient #3): — (IgG reactive to a corresponding peptide was judged to be positive when a difference of OD in a 1:100-diluted plasma was more than 0.054.) | IgG reactive to the peptide in plasma (difference of OD) ([1]; HLA-A2^+ prostate cancer patient #4): — (IgG reactive to a corresponding peptide was judged to be positive when a difference of OD in a 1:100-diluted plasma was more than 0.054.) | IgG reactive to the peptide in plasma (difference of OD) ([1]; HLA-A2^+ prostate cancer patient #5): — (IgG reactive to a corresponding peptide was judged to be positive when a difference of OD in a 1:100-diluted plasma was more than 0.054.) | IgG reactive to the peptide in plasma (difference of OD) ([1]; HLA-A2^+ prostate cancer patient #6): — (IgG reactive to a corresponding peptide was judged to be positive when a difference of OD in a 1:100-diluted plasma was more than 0.054.) | IgG reactive to the peptide in plasma (difference of OD) ([1]; HLA-A2^+ prostate cancer patient #7): 0.0655 OD | IgG reactive to the peptide in plasma (difference of OD) ([1]; HLA-A2^+ prostate cancer patient #8): — (IgG reactive to a corresponding peptide was judged to be positive when a difference of OD in a 1:100-diluted plasma was more than 0.054.) | IgG reactive to the peptide in plasma (difference of OD) ([1]; HLA-A2^+ prostate cancer patient #9): — (IgG reactive to a corresponding peptide was judged to be positive when a difference of OD in a 1:100-diluted plasma was more than 0.054.) | IgG reactive to the peptide in plasma (difference of OD) ([1]; HLA-A2^+ prostate cancer patient #10): — (IgG reactive to a corresponding peptide was judged to be positive when a difference of OD in a 1:100-diluted plasma was more than 0.054.) | IgG reactive to the peptide detected, number of patients [1, 3]: 2 of 10 | Total (IgG-positive patients / patients tested) [1, 3]: 2/10 | IFN-γ production of peptide-stimulated PBMCs in response to peptide-pulsed T2 cells ([2]; FIG. 4A): could produce IFN-γ | INF-γ production ([2]; HLA-A2^+ healthy donor #1 (A0201)): 140 pg/mL | INF-γ production ([2]; HLA-A2^+ healthy donor #2 (A0201)): 100 pg/mL | INF-γ production ([2]; HLA-A2^+ healthy donor #3 (A0201)): 0 pg/mL | INF-γ production ([2]; HLA-A2^+ healthy donor #4 (A0201)): 6 pg/mL | INF-γ production ([2]; HLA-A2^+ healthy donor #5 (A0206)): 112 pg/mL | INF-γ production ([2]; HLA-A2^+ healthy donor #6 (A0206)): 296 pg/mL | INF-γ production ([2]; HLA-A2^+ healthy donor #7 (A0206)): 38 pg/mL | INF-γ production ([2]; HLA-A2^+ healthy donor #8 (A0206)): 22 pg/mL | INF-γ production ([2]; HLA-A2^+ healthy donor #9 (A0206)): 23 pg/mL | INF-γ production ([2]; HLA-A2^+ healthy donor #10 (A0207)): 0 pg/mL | induced peptide-specific CTLs, number of donors ([2]; HLA-A2^+ healthy donors): 4 of 10 | Total (donors with significant peptide-specific IFN-γ production / donors tested) ([2]; HLA-A2^+ healthy donors, p < 0.05): 4/10 | INF-γ production ([2]; HLA-A2^+ prostate cancer patient #1 (A0206)): 118 pg/mL | INF-γ production ([2]; HLA-A2^+ prostate cancer patient #2 (A0210)): 183 pg/mL | INF-γ production ([2]; HLA-A2^+ prostate cancer patient #3 (A0210)): 129 pg/mL | INF-γ production ([2]; HLA-A2^+ prostate cancer patient #4 (A0206)): 221 pg/mL | INF-γ production ([2]; HLA-A2^+ prostate cancer patient #5 (A0206)): 0 pg/mL | INF-γ production ([2]; HLA-A2^+ prostate cancer patient #6 (A0207)): 37 pg/mL | INF-γ production ([2]; HLA-A2^+ prostate cancer patient #7 (A0206)): 0 pg/mL | INF-γ production ([2]; HLA-A2^+ prostate cancer patient #8 (A0206)): 59 pg/mL | INF-γ production ([2]; HLA-A2^+ prostate cancer patient #9 (A0201)): 0 pg/mL | INF-γ production ([2]; HLA-A2^+ prostate cancer patient #10 (A0201)): 49 pg/mL | induced peptide-specific CTLs (peptide-specific IFN-γ production), number of patients [2, 3]: 4 of 10 | Total (patients with significant peptide-specific IFN-γ production / patients tested) ([2]; HLA-A2^+ prostate cancer patients, p < 0.05): 4/10
